No constants are given. Whether binding was seen depends on the method and setting. Binding seen in cells or lysates may run through a third protein. Some entries that bind do so weakly or less than the wild type.

The chains behind the UniProt entries cited, without tags or fusion partners. Where a name states a change or a piece, a line headed by the entry shows the natural chain unless it says otherwise.
UniProt P30543: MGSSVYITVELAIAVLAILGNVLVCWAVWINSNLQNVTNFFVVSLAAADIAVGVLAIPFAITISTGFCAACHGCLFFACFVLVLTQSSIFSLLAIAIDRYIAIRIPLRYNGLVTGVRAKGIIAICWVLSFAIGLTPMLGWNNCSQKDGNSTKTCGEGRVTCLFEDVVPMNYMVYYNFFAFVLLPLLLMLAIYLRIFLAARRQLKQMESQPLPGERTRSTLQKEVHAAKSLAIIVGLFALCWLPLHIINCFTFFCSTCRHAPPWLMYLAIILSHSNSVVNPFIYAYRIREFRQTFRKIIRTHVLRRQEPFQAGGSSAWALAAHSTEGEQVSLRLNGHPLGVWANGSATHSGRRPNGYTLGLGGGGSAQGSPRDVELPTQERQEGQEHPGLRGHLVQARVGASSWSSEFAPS
UniProt P61169: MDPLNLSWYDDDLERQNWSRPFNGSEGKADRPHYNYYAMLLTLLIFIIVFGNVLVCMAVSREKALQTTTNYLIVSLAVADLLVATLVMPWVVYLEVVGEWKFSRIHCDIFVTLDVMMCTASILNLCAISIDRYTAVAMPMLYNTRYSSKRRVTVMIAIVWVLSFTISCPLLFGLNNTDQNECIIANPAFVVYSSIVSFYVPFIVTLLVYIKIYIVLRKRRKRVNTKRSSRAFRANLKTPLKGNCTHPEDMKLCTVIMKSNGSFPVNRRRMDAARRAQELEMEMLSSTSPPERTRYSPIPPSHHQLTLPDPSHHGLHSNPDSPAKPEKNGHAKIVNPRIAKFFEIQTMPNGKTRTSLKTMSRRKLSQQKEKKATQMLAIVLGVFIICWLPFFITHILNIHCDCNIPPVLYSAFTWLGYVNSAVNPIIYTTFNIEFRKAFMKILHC

Test [1] concerns the target wild-type A2AR tagged with SNAP (UniProt P29274). Description: FRET or BRET; TR-FRET between fluorescent ligands NAPS-Lumi4-Tb (1 nM, donor on D2R) and SCH-red (10 nM, acceptor on A2AR) on transiently transfected HEK-293 cells; Tris-Krebs buffer pH 7.4. On the technique in general: Bioluminescence resonance energy transfer reports proximity on the nanometre scale.
Test [2] deals with adenosine A2A receptor (native, rat striatum) (rat (endogenous in striatum)) (UniProt P30543). Kind of test: proximity ligation; Duolink in situ PLA on PFA-fixed coronal rat brain sections with goat anti-A2AR and rabbit anti-D2R polyclonal antibodies; striatum of normal and 6-OHDA-lesioned hemispheres; signal counted as dots/nuclei.
For test [3] the target is unchanged. Description: FRET or BRET; TR-FRET between fluorescent ligands NAPS-Lumi4-Tb (1 nM) and SCH-red (10 nM) on fresh rat striatal membranes purified by sucrose gradient (70 ug per assay), overnight at 4°C, Tris-Krebs buffer pH 7.4; normal rats and 6-OHDA-lesioned rats.

Consider “wild-type D2R tagged with Halo (from UniProt P14416 1-443) (receptor)”, for which the binding entry in test [1] was “binds”. As to “dopamine D2 receptor (native, rat striatum) (from UniProt P61169 1-444)”, the binding result in test [2] and in test [3] was “binds” each time.

These data come from publication PMC4283650, “Untangling dopamine-adenosine receptor-receptor assembly in experimental parkinsonism in rats” (Disease Models & Mechanisms, 2014).
